Data on 38 targets can be found in the supplement of paper PMC10849652.

By UniProt entry, the sequences of proteins in these tests, tags left out. Where a name states a change or a piece, a line headed by the entry shows the natural chain unless it says otherwise.
UniProt Q14653: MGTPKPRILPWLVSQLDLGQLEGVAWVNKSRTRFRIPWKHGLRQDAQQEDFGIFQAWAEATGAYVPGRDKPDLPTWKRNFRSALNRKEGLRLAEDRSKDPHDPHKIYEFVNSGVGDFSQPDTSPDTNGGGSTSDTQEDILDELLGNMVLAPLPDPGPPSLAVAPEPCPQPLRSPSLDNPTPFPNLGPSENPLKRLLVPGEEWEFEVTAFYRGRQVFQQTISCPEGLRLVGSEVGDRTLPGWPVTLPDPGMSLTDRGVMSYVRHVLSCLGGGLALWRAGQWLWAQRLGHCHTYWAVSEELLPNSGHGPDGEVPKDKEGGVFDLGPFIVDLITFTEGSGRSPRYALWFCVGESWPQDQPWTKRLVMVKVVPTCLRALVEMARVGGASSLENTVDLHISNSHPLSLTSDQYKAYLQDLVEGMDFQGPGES
UniProt Q7L273: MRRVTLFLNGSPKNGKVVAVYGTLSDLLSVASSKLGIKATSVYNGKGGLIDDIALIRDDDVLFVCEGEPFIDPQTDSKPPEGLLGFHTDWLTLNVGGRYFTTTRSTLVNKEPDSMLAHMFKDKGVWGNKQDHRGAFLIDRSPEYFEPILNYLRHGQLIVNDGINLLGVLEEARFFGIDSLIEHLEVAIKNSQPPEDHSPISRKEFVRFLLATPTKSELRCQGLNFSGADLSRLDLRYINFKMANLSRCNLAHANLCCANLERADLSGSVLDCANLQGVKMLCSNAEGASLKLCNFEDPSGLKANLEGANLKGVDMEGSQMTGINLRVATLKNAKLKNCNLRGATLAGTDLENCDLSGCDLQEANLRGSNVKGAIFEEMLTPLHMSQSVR
UniProt P48200: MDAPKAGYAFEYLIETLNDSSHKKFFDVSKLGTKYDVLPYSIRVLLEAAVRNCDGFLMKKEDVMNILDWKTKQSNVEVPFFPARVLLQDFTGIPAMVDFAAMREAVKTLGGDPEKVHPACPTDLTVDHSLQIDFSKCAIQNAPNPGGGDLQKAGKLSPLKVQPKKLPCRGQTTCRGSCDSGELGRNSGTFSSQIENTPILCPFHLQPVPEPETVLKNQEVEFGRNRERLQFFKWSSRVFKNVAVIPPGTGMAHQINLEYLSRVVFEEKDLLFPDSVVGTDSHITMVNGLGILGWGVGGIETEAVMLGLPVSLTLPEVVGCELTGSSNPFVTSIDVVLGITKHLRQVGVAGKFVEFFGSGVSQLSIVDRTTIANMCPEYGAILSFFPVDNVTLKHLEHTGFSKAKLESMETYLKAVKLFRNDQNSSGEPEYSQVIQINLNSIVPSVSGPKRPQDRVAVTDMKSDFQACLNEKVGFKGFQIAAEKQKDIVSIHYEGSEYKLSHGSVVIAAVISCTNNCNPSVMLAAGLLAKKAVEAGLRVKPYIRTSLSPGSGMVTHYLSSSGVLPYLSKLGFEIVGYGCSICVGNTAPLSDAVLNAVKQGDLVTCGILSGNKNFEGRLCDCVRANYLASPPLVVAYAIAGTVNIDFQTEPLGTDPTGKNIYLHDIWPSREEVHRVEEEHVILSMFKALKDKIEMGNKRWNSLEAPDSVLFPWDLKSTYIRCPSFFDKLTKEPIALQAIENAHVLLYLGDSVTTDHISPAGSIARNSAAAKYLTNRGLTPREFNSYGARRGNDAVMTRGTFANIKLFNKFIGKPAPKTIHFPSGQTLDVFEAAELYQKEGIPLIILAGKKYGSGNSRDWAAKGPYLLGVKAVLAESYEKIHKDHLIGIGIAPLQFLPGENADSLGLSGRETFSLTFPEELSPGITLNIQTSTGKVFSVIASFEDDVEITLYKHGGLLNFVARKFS
UniProt Q96AB3: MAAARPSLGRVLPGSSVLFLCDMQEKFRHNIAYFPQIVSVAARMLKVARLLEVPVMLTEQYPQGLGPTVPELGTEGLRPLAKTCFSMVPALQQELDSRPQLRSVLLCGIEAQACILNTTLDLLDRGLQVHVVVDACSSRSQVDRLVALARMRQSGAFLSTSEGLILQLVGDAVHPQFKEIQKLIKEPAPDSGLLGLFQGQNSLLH
UniProt P05556, whole entry, looked up: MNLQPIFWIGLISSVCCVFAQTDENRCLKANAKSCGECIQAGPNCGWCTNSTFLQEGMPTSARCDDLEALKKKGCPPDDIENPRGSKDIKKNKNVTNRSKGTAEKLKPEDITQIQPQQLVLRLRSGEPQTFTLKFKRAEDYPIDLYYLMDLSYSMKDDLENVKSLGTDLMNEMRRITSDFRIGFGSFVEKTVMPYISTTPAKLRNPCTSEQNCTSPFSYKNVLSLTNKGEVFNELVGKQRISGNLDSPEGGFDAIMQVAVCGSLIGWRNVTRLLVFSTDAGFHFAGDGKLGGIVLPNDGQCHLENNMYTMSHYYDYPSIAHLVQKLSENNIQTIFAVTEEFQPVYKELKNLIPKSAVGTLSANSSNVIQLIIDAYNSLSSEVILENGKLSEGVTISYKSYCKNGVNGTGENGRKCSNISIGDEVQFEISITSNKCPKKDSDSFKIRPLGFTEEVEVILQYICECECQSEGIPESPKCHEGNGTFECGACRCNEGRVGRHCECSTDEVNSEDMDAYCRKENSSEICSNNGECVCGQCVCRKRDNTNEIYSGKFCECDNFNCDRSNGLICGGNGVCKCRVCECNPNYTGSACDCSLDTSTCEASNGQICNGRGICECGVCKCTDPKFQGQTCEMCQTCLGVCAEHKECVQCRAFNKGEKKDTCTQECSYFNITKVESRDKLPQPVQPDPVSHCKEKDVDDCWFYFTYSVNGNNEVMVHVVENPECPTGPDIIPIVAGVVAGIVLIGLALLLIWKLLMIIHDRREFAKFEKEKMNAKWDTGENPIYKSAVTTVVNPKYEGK
UniProt Q9Y597: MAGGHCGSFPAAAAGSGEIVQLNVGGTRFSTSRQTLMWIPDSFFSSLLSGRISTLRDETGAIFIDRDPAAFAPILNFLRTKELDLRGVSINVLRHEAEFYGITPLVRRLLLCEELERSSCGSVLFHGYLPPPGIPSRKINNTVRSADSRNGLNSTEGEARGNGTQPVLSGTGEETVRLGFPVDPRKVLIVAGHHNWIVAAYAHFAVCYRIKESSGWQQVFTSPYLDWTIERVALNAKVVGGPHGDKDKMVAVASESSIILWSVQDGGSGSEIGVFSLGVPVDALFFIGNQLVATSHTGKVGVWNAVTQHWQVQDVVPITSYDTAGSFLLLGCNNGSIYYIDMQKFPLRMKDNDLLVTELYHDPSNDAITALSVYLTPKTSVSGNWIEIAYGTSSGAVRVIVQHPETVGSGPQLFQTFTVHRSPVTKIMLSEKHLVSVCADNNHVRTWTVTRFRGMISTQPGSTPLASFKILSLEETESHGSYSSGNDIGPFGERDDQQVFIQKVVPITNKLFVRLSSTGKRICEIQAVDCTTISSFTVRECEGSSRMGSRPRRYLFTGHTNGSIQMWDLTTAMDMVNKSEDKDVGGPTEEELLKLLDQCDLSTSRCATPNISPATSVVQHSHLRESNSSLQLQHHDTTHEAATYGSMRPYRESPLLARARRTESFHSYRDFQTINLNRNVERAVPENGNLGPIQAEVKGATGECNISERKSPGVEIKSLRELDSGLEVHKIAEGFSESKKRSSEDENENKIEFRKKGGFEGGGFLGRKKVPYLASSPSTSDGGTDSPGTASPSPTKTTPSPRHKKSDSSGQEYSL
UniProt Q9NPH2: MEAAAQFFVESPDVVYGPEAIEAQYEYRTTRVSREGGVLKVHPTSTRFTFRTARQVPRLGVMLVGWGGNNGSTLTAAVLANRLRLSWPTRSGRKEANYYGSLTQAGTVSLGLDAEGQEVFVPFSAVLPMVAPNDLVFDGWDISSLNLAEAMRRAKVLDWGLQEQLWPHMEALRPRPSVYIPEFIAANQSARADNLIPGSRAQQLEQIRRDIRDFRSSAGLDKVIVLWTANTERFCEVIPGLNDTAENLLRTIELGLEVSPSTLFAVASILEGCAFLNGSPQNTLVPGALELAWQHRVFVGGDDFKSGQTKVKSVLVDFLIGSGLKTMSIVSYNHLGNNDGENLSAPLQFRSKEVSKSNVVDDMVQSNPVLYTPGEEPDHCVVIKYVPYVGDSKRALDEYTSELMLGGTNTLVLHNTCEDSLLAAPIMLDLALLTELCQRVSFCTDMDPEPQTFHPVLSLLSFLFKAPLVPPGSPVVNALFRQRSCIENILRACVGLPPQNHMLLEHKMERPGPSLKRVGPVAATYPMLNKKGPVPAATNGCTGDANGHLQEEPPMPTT
UniProt Q14624: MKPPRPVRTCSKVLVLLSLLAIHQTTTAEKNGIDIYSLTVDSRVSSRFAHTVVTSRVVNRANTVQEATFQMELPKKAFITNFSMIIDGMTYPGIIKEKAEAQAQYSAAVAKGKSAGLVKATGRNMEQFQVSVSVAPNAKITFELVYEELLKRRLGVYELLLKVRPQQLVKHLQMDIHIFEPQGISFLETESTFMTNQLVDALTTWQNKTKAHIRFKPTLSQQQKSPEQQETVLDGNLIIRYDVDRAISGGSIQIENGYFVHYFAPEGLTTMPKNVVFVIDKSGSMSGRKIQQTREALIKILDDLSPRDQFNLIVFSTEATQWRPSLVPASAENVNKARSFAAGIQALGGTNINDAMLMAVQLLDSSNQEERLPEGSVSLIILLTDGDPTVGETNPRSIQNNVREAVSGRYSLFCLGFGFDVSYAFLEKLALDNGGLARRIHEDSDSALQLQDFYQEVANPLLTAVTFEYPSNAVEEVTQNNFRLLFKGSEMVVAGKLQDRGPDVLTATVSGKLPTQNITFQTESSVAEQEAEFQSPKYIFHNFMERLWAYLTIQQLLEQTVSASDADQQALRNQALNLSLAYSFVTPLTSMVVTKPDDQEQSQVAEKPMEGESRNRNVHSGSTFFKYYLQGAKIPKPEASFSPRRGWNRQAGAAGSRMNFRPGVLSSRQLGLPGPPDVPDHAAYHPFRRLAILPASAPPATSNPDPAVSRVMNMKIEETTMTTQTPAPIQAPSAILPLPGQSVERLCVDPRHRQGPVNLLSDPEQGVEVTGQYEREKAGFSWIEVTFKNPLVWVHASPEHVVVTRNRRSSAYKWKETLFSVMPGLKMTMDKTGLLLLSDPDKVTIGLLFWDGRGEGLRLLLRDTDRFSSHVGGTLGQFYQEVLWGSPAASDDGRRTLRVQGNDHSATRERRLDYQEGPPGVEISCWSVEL
UniProt Q9P2N6: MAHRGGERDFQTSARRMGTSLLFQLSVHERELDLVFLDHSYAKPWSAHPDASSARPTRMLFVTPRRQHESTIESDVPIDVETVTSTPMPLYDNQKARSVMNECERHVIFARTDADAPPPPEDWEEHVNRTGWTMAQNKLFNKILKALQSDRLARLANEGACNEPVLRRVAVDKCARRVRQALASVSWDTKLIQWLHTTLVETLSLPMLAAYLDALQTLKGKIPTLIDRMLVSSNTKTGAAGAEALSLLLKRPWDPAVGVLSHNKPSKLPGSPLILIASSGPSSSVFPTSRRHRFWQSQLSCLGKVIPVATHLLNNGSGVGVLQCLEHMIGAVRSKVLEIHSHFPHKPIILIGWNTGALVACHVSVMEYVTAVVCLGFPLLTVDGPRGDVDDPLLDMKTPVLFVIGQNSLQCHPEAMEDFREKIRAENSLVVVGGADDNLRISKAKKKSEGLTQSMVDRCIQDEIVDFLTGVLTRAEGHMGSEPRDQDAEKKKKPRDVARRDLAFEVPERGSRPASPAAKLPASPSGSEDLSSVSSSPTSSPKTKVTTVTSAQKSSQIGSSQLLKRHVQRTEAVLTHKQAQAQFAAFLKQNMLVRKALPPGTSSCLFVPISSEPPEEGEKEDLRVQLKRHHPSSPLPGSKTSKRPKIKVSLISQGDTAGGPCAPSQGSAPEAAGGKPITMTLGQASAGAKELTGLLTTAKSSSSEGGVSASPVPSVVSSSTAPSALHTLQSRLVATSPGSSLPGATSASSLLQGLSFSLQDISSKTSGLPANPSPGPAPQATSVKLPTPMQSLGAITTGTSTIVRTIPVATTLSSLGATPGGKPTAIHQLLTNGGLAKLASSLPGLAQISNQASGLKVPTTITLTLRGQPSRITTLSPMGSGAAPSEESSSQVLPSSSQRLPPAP
UniProt O95279: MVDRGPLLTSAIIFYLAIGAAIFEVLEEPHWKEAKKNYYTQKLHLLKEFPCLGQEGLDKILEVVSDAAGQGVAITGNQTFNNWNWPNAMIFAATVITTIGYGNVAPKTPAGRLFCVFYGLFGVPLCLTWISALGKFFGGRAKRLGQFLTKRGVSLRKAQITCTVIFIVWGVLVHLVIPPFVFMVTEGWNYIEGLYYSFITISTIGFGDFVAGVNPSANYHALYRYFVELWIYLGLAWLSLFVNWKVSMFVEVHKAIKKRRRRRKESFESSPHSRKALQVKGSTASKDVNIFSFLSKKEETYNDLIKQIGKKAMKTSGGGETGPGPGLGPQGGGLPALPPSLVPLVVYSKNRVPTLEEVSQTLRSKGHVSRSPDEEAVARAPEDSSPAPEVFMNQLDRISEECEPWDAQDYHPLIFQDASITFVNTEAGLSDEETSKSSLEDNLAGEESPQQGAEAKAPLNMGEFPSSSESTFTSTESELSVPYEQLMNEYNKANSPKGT

Some of the results follow.

Compound in one assay: CC1=C2C(=CC=C1)N=C(N(C2=O)C3=CC=CC=C3C)CN4C=NC5=C(N=CN=C54)N
Nature of the assay: log2 fold change, soluble protein after heating vs DMSO (PISA); higher = thermal stabilisation; K562 lysate, 10 uM; active = over 0.2 and 3.5 SD of the protein, either way, in both replicates (recomputed). The procedure, abridged: (§1)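 Dounce homogenisation of K562 pellets in PBS pH 7.4 with 1 mM MgCl2 produced a crude extract, used at 1 mg/mL protein. Exposure to 10 μM compound lasted 30 min, and aliquots were then heated for 3 min across 48°C-58°C, pooled and brought to 0.5% NP-40 at 4°C. The supernatant after 21,000xg for 90 min was quantified by TMTpro 16plex LC-MS/MS with channel sums equalised. Duplicate values are given as log-two fold change in thermal stability relative to solvent controls.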
For the target IQUB (UniProt Q8NA54), the log2 fold change is inactive: -0.222.
The same measure, in the same setting: in the case of KBTBD4 isoform 2 (UniProt Q9NVX7) it was inactive: -0.106; in that of IWS1 (UniProt Q96ST2), inactive: 0.009.
Regarding IRF3 (UniProt Q14653), the log2 fold change is inactive: 0.005.
For KDM1B (UniProt Q8NB78), the log2 fold change was inactive: 0.092.
With ITPR1 (UniProt Q14643), the log2 fold change was inactive: 0.045.
Same read-out and setting: in the case of JMJD1C (UniProt Q15652) it was inactive: -0.012; in that of KATNB1 (UniProt Q9BVA0), inactive: 0.017; in that of KATNAL1 (UniProt Q9BW62), inactive: -0.075.
On the same count and under the same terms, in the case of KCTD5 (UniProt Q9NXV2) it was inactive: 0.016; in that of IP6K1 (UniProt Q92551), inactive: -0.068; in that of KCTD10 (UniProt Q9H3F6), inactive: -0.036.
For the target KCTD9 (UniProt Q7L273), the log2 fold change is inactive: 0.
Same read-out and setting: in the case of IREB2 (UniProt P48200) it was inactive: -0.002; in that of IQGAP2 (UniProt Q13576), inactive: -0.029.
As to ITIH2 (UniProt P19823), the log2 fold change is inactive: 0.012.
Same read-out and setting: in the case of ISOC2 (UniProt Q96AB3) it was inactive: 0.085.
The same measure, in the same setting: in the case of JMJD4 (UniProt Q9H9V9) it was inactive: -0.014; in that of ITGB1 (UniProt P05556), inactive: -0.011; in that of INTS4 (UniProt Q96HW7), inactive: 0.105.
As for KCTD3 (UniProt Q9Y597), the log2 fold change was inactive: 0.009.
For the target JAK3 (UniProt P52333), the log2 fold change was inactive: -0.129.
Same read-out and setting: in the case of ITM2A (UniProt O43736) it was inactive: 0.004; in that of KAT8 (UniProt Q9H7Z6), inactive: -0.082.
Same read-out and setting: with JAGN1 (UniProt Q8N5M9) the figure was inactive: -0.029; with ITFG2 (UniProt Q969R8), inactive: -0.057; with KCMF1 (UniProt Q9P0J7), inactive: 0.025.
On to ITGB5 (UniProt P18084), for which the log2 fold change was inactive: -0.038.
Take ISYNA1 (UniProt Q9NPH2): the log2 fold change is inactive: -0.011.
With JMJD6 isoform 3 (UniProt Q6NYC1), the log2 fold change is inactive: -0.032.
On the same count and under the same terms, in the case of INTS8 (UniProt Q75QN2) it was inactive: -0.002.
The same measure, in the same setting: with ITIH4 (UniProt Q14624) the figure was inactive: -0.117.
With KANSL3 (UniProt Q9P2N6), the log2 fold change was inactive: 0.021.
Still for that read-out and setting: in the case of INTS3 (UniProt Q68E01) it was inactive: -0.043.
Same read-out and setting: with ISG15 (UniProt P05161) the figure was inactive: -0.02; with ITGAE (UniProt P38570), inactive: 0.011; with KCNK5 (UniProt O95279), inactive: 0.296.

Compound in another assay: Cc1sc2c(c1C)C(c1ccc(Cl)cc1)=N[C@@H](CC(=O)OC(C)(C)C)c1nnc(C)n1-2
The assay is described as above. The essentials:
as §1
With KBTBD4 isoform 2 (UniProt Q9NVX7), the log2 fold change was inactive: -0.025.
On the same count and under the same terms, in the case of IWS1 (UniProt Q96ST2) it was inactive: -0.007; in that of IRF3 (UniProt Q14653), inactive: 0.004; in that of KDM1B (UniProt Q8NB78), inactive: 0.061.
Still for that read-out and setting: with JMJD1C (UniProt Q15652) the figure was inactive: 0.074; with KATNB1 (UniProt Q9BVA0), inactive: 0.024; with KATNAL1 (UniProt Q9BW62), inactive: -0.144.
The same measure, in the same setting: with KCTD5 (UniProt Q9NXV2) the figure was inactive: -0.111; with IP6K1 (UniProt Q92551), inactive: 0.01.
As to KCTD10 (UniProt Q9H3F6), the log2 fold change is inactive: -0.001.
For KCTD9 (UniProt Q7L273), the log2 fold change is inactive: -0.083.
Still for that read-out and setting: in the case of IREB2 (UniProt P48200) it was inactive: 0.015; in that of IQGAP2 (UniProt Q13576), inactive: 0.004; in that of ISOC2 (UniProt Q96AB3), inactive: 0.03.
The same measure, in the same setting: in the case of JMJD4 (UniProt Q9H9V9) it was inactive: -0.093; in that of ITGB1 (UniProt P05556), inactive: -0.048.
Still for that read-out and setting: with INTS4 (UniProt Q96HW7) the figure was inactive: -0.022; with KCTD3 (UniProt Q9Y597), inactive: -0.026.
Consider ITM2A (UniProt O43736), for which the log2 fold change was inactive: 0.11.
The same measure, in the same setting: with KAT8 (UniProt Q9H7Z6) the figure was inactive: 0.037; with JAGN1 (UniProt Q8N5M9), inactive: -0.024; with ITFG2 (UniProt Q969R8), inactive: 0.075.
The same measure, in the same setting: with KCMF1 (UniProt Q9P0J7) the figure was inactive: -0.009.
On the same count and under the same terms, in the case of ITGB5 (UniProt P18084) it was inactive: 0.007.
Take ISYNA1 (UniProt Q9NPH2): the log2 fold change was inactive: -0.009.
JMJD6 isoform 3 (UniProt Q6NYC1): the log2 fold change was inactive: 0.012.
Regarding ITM2C (UniProt Q9NQX7), the log2 fold change is inactive: -0.044.
Take INTS8 (UniProt Q75QN2): the log2 fold change is inactive: 0.023.
On to ITIH4 (UniProt Q14624), for which the log2 fold change was inactive: -0.237.
The same measure, in the same setting: in the case of KANSL3 (UniProt Q9P2N6) it was inactive: 0.037.
On to INTS3 (UniProt Q68E01), for which the log2 fold change was inactive: -0.06.
Turning to ISG15 (UniProt P05161), the log2 fold change is inactive: -0.098.
With KCNK5 (UniProt O95279), the log2 fold change is inactive: -0.394.

Compound in the next assay: c1ccc([C@@H]2C[C@H]2NC2CCNCC2)cc1
The assay is described as above. The procedure, abridged: as §1
IQUB (UniProt Q8NA54): the log2 fold change is inactive: 0.042.
Still for that read-out and setting: with KBTBD4 isoform 2 (UniProt Q9NVX7) the figure was inactive: 0.016; with IWS1 (UniProt Q96ST2), inactive: -0.003.
As for IRF3 (UniProt Q14653), the log2 fold change is inactive: 0.052.
On the same count and under the same terms, with KDM1B (UniProt Q8NB78) the figure was inactive: -0.055; with ITPR1 (UniProt Q14643), inactive: -0.115.
Turning to JMJD1C (UniProt Q15652), the log2 fold change is inactive: 0.021.
Take KATNB1 (UniProt Q9BVA0): the log2 fold change was inactive: -0.005.
For KATNAL1 (UniProt Q9BW62), the log2 fold change is inactive: -0.002.
The same measure, in the same setting: in the case of KCTD5 (UniProt Q9NXV2) it was inactive: -0.033; in that of IP6K1 (UniProt Q92551), inactive: -0.165.
Same read-out and setting: in the case of KCTD10 (UniProt Q9H3F6) it was inactive: 0.057; in that of KCTD9 (UniProt Q7L273), inactive: -0.017; in that of IREB2 (UniProt P48200), inactive: 0.
For IQGAP2 (UniProt Q13576), the log2 fold change was inactive: 0.023.
Same read-out and setting: with ITIH2 (UniProt P19823) the figure was inactive: 0.01; with ISOC2 (UniProt Q96AB3), inactive: -0.031.
The same measure, in the same setting: with JMJD4 (UniProt Q9H9V9) the figure was inactive: 0.025; with ITGB1 (UniProt P05556), inactive: 0.019.
Take INTS4 (UniProt Q96HW7): the log2 fold change is inactive: 0.011.
On the same count and under the same terms, in the case of KCTD3 (UniProt Q9Y597) it was inactive: -0.042.
On the same count and under the same terms, in the case of JAK3 (UniProt P52333) it was inactive: 0.254.
The same measure, in the same setting: in the case of ITM2A (UniProt O43736) it was inactive: 0.165.
On to KAT8 (UniProt Q9H7Z6), for which the log2 fold change is inactive: 0.063.
On the same count and under the same terms, in the case of JAGN1 (UniProt Q8N5M9) it was inactive: -0.008.
As to ITFG2 (UniProt Q969R8), the log2 fold change was inactive: -0.069.
KCMF1 (UniProt Q9P0J7): the log2 fold change is inactive: -0.052.
As for ITGB5 (UniProt P18084), the log2 fold change is inactive: 0.002.
Same read-out and setting: with ISYNA1 (UniProt Q9NPH2) the figure was inactive: -0.032; with JMJD6 isoform 3 (UniProt Q6NYC1), inactive: 0.028.
In the case of INTS8 (UniProt Q75QN2), the log2 fold change is inactive: 0.081.
Still for that read-out and setting: with ITIH4 (UniProt Q14624) the figure was inactive: -0.105.
Same read-out and setting: in the case of KANSL3 (UniProt Q9P2N6) it was inactive: -0.034; in that of INTS3 (UniProt Q68E01), inactive: 0.074.
The same measure, in the same setting: with ISG15 (UniProt P05161) the figure was inactive: -0.032; with ITGAE (UniProt P38570), inactive: -0.237; with KCNK5 (UniProt O95279), inactive: -0.316.
